The values are deposited in ChEMBL (CHEMBL3988442, “University of Dundee, Small-Polar-MMV Screening Library” (2021)).

The filed quantity is “Percent Effect” (%). The controls that fix the scale are not given in the record; negative values are as filed. The compounds are a random part of those screened.

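Assay of Toxoplasma gondii numbers, read through their beta-galactosidase reporter with a colour substrate. Tested at 10 µM. The record gives no direction; the compounds picked for IC50 retests had high values, so higher reads as fewer parasites. Size under these conditions: about 67,000 compounds, about 260 of them at 50% or above in at least one test.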

For Cc1csc2ncnc(N3CCC(Cn4cc(C(C)(C)O)nn4)CC3)c12 the result was -1.608%.
For COc1ccccc1C(=O)N1CCC(Nc2ccc(C)nn2)CC1 the result was -16.34%.
For Cc1cc(C)nc(-n2nc(C)c3c2NC(=O)CSC3c2cnn(C)c2)n1 (stereo not drawn) the result was -7.713%.
For CS(=O)(=O)c1ccc(-c2ccccc2C(=O)O)cc1 the result was -4.383%.
For CCOc1cccc(CN2CCCn3nc(CNS(C)(=O)=O)cc3C2)c1 the result was 5.772%.
For O=C(O)C(F)(F)F.O=C(O)C(F)(F)F.[H][C@@]12CCCO[C@]1([H])[C@H](N(C)Cc1ccco1)CN2Cc1ccc(OC)cc1 the result was -0.721%.
For Cc1nc(NC(=O)C(C)S(C)(=O)=O)sc1Cc1ccccc1F (stereo not drawn) the result was 2.868%.
For N#Cc1ccc(CN2CCN(c3cncc(Cl)n3)CC2=O)cc1 the result was -1.897%.
For CCOc1ncccc1C(=O)N1CCCC1c1c(C)nn(C)c1Cl (stereo not drawn) the result was 14.19%.
For O=C(COCCOc1ccccc1)NC1CCN(c2ncccn2)CC1 the result was 13.92%.
For COC(=O)CCN(C)C(=O)c1ccc(-c2cscn2)cc1 the result was -8.673%.
For COC(=O)CNC(=O)CSCc1nc(O)c2cc(C(C)C)sc2n1 the result was -2.391%.
For CCc1nccn1C1CCCN(C(=O)c2cc(C3CC3)on2)C1 (stereo not drawn) the result was 4.714%.
For CN(C)c1ccc(C(=O)Nc2ccn(Cc3ccccn3)n2)cn1 the result was -20.99%.
For CCCN(C)C(=O)Nc1ccc(C(=O)NCCC(=O)OC)cc1 the result was -1.241%.
For CN(C)c1nc(N2CCCC2)nc2c1CCN(C(=O)c1ccoc1)CC2 the result was -6.695%.
For O=C(O)C(F)(F)F.[H][C@@]12C[C@H](C(=O)N3CCN(C)CC3)[C@@]([H])(CN(S(=O)(=O)CC(C)C)C1)O2 the result was 13.43%.
For N#CCCN(CC(=O)Nc1ccc(Br)cc1Cl)Cc1cccnc1 the result was -5.134%.
For Cc1cccc2c1OCCCC2NCc1nnc2n1CCCCC2 (stereo not drawn) the result was 0.4908%.
For CC(C)=CCN1CC2(CCN(C(=O)CCn3ccnc3C)CC2)CC1=O the result was 1.452%.
For CCCN(C(=O)c1cnns1)C1CCCN(Cc2ccccc2)C1 (stereo not drawn) the result was 4.762%.
For CC(=O)NCCC(Cc1ccccc1)c1ccco1 (stereo not drawn) the result was 8.623%.
For [H][C@@]12COC[C@@H](Cc3nc(C)no3)[C@]1([H])CN(S(=O)(=O)CCC)C2 the result was -4.639%.
For [H][C@]12CC[C@@]3(N=C(C)N(CC(C)C)C3=O)[C@@]1([H])CN(S(=O)(=O)N(C)C)C2 the result was -1.775%.
For CC(C)S(=O)(=O)NCC1CCCN(C(=O)c2ccc3c(c2)CCC3)C1 (stereo not drawn) the result was 1.642%.
For [H][C@@]12CCCCN(C(=O)c3cnccn3)[C@]1([H])[C@@H](c1ccccc1)CCN2C the result was -1.089%.
For COC1CC2(CCN(Cc3nccn3C)CC2)C1.O=C(O)C(F)(F)F the result was -9.69%.
For CCc1noc(C(C)N2CCN(CCN3CCCC3=O)CC2)n1 (stereo not drawn) the result was -46.17%.
For Cn1cc(NC(=O)CCCc2cccs2)c(=O)n(C)c1=O the result was -8.678%.
For Cc1ccc(Cl)cc1N1CCC(CNC(=O)CC(F)(F)F)C1 (stereo not drawn) the result was 5.338%.
For CC(Nc1ccc(CN2CCCC2=O)cc1)c1ccc(C#N)cc1 (stereo not drawn) the result was -15.06%.
For COCCCNc1ncc(-c2cccc(F)c2)c(-c2nccn2C)n1 the result was -5.198%.
For O=S(=O)(Cc1ccc(F)cc1)NCc1ccco1 the result was 17.63%.
For c1cnn(CC2CCCN2Cc2nc(C3CC3)no2)c1 (stereo not drawn) the result was -5.138%.
For CC(C)Oc1ccc(CN2CCCC(N3CCOCC3)C2)cc1CO (stereo not drawn) the result was 4.039%.
For CC(c1cccnc1)N(C)Cc1csc(-c2ccccn2)n1 (stereo not drawn) the result was 5.255%.
For CCN1CCN(C(=O)C2CCCc3[nH]ncc32)CC1 (stereo not drawn) the result was 12.04%.
For O=C(O)C(F)(F)F.O=C1CC2(CCN(Cc3ccccn3)C2)CN1c1cncnc1 (stereo not drawn) the result was -4.572%.
For CCC[C@@H]1CN(c2cncc(C(=O)N3CCOCC3)n2)C[C@H]1N(C)C the result was 19.69%.
For CCC(CC)N(Cc1cc(=O)n(C)c(=O)n1C)C1CC1 the result was -6.283%.
For O=C(N1CCOCC1CO)C1(c2cccs2)CCCC1 (stereo not drawn) the result was -24.8%.
For O=C(c1ccco1)N1CCc2onc(CN3CCCC3)c2C1 the result was -6.627%.
For O=C(O)C(F)(F)F.O=C1N(Cc2cccnc2)CCC12CCCN(c1ncc(F)cn1)C2 (stereo not drawn) the result was 16.26%.
For CCN(C)c1ccc(CNC(=O)CCn2cc(C)cn2)cc1F the result was 5.385%.
For CS(=O)(=O)c1cn[nH]c1C1CCCCN1C(=O)c1ccsc1 (stereo not drawn) the result was 2.463%.
For Cc1nn(C)c(C)c1CC(=O)NCc1cccnc1N1CCOCC1 the result was -12.82%.
For CN(C)C(=O)C1CN(c2ncccn2)CCN1C (stereo not drawn) the result was 17.64%.
For [H][C@]12CC[C@]([H])(CN(Cc3ccccc3)C1)N(C(=O)c1ccccc1C#N)C2 the result was 0.7493%.
For CCOc1cc(CN(C)CCCO)ccc1OC(F)F the result was -3.467%.
For O=C(CCc1ccc(Br)cc1F)NS(=O)(=O)c1ccc2c(c1)OCCO2 the result was -4.106%.
For COc1ncnc(N)c1CNCC(C)SC (stereo not drawn) the result was -5.023%.
For Cc1nc(N2CCCC2)nc2c1CCN(C(=O)C(C)C)CC2 the result was -11.6%.
For O=C(N[C@H]1COC[C@@H]1N1CCCC1)c1csc(-c2cccs2)n1 the result was 14.35%.
For CC(C)COCC(NC(=O)Cc1ccn[nH]1)c1ccco1 (stereo not drawn) the result was 8.043%.
For Cc1ccc(CN2CCC3(CCCN(Cc4ccc(F)c(F)c4)C3)C2)o1 (stereo not drawn) the result was -81.93%.
For Cc1cnn(CC2CCCN2Cc2nnc(-c3ccccc3)o2)c1 (stereo not drawn) the result was -26.08%.
For O=S(=O)(NCCN1CC=CC1)c1ccc(Cl)cc1 the result was -4.795%.

The last 5 entries again:

* O=C(N[C@H]1COC[C@@H]1N1CCCC1)c1csc(-c2cccs2)n1 | 14.35%
* CC(C)COCC(NC(=O)Cc1ccn[nH]1)c1ccco1 (stereo not drawn) | 8.043%
* Cc1ccc(CN2CCC3(CCCN(Cc4ccc(F)c(F)c4)C3)C2)o1 (stereo not drawn) | -81.93%
* Cc1cnn(CC2CCCN2Cc2nnc(-c3ccccc3)o2)c1 (stereo not drawn) | -26.08%
* O=S(=O)(NCCN1CC=CC1)c1ccc(Cl)cc1 | -4.795%